Experimental data reported in the supplement of paper PMC12819154, “High-throughput peptide-centric local stability assay extends protein–ligand identification to membrane proteins, tissues and bacteria” (Nature Structural & Molecular Biology, 2025).
The other results are listed elsewhere or left out. Small differences around the control level are noise.

Sequences of proteins named here, by UniProt entry; tags and fusion partners are left off. A change or cut given only in a name is not applied to a line headed by its entry.
UniProt P75957: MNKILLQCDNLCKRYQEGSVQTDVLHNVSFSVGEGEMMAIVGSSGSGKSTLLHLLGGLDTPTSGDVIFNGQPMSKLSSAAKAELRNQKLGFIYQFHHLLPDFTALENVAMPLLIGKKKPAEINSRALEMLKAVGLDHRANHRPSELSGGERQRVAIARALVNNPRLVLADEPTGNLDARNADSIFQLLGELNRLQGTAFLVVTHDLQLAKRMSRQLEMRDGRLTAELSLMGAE
UniProt P77338: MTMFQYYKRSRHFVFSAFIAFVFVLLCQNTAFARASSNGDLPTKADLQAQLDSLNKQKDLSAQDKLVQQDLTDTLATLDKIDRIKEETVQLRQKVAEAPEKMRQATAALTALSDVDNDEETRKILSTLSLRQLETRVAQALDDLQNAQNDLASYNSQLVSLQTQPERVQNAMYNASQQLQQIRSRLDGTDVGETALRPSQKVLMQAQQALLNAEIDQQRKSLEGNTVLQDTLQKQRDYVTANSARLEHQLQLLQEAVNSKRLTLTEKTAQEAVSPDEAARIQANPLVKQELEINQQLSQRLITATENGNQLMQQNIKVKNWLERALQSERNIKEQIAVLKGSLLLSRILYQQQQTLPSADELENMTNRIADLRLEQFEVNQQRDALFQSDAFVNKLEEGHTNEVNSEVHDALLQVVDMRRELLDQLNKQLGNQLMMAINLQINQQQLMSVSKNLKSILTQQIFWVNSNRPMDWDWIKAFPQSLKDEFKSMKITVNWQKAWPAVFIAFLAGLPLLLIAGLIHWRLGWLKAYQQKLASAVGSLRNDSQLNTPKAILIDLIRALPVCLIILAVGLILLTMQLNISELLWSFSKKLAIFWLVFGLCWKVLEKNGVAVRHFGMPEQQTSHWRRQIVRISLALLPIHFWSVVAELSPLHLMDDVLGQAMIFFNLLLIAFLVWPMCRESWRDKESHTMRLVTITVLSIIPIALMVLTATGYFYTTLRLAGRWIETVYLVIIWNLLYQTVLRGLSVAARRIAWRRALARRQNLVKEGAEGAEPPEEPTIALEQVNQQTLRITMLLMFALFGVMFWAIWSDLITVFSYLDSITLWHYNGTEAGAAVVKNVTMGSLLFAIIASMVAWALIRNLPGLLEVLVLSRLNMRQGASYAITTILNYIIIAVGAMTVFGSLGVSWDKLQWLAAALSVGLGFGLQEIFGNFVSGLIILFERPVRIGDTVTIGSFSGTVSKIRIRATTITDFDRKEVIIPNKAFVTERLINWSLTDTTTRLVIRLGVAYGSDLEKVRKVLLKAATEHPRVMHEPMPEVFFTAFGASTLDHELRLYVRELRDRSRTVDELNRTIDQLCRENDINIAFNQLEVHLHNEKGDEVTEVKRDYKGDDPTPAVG
UniProt P76086: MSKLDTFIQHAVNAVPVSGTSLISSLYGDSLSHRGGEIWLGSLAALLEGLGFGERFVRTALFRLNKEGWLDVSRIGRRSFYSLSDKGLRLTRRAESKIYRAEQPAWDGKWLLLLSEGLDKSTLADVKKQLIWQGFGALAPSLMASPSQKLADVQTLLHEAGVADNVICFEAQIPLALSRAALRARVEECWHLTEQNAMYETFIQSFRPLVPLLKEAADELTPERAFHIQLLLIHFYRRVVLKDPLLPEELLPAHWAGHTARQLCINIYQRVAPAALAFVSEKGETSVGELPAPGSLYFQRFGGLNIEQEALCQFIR
UniProt P76097: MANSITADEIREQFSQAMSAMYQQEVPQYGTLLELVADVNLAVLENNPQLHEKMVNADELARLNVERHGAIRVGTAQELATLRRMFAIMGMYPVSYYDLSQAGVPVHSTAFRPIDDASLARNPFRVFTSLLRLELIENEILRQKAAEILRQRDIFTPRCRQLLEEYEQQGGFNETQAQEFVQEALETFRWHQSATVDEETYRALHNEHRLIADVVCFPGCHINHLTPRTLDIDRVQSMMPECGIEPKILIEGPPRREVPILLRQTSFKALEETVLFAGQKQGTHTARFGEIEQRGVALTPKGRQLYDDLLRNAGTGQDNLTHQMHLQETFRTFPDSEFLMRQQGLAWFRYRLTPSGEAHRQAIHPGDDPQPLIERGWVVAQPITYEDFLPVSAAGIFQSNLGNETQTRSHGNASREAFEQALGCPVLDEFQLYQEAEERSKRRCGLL
UniProt P76112: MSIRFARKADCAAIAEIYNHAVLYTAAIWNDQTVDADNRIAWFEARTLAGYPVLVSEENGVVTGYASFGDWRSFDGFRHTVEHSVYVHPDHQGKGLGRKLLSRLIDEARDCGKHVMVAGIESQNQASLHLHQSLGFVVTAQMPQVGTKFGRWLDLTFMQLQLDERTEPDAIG
UniProt P77256: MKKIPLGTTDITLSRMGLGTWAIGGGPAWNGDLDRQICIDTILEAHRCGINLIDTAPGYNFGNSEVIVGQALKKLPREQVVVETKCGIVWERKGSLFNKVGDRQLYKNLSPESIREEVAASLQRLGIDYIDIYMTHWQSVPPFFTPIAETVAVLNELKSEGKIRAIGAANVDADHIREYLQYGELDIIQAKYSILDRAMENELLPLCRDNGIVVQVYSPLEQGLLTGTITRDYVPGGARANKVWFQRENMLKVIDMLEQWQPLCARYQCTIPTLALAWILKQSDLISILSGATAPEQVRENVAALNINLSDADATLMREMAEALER
UniProt P76342: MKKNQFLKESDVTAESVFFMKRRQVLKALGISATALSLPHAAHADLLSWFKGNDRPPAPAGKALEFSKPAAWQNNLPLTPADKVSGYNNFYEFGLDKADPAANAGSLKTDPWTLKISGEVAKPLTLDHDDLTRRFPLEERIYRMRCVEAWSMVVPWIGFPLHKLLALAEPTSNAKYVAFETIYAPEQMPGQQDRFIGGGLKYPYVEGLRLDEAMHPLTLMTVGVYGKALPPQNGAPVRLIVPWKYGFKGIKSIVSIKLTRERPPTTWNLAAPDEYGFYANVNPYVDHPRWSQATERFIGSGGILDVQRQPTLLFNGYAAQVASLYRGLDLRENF
UniProt P76041: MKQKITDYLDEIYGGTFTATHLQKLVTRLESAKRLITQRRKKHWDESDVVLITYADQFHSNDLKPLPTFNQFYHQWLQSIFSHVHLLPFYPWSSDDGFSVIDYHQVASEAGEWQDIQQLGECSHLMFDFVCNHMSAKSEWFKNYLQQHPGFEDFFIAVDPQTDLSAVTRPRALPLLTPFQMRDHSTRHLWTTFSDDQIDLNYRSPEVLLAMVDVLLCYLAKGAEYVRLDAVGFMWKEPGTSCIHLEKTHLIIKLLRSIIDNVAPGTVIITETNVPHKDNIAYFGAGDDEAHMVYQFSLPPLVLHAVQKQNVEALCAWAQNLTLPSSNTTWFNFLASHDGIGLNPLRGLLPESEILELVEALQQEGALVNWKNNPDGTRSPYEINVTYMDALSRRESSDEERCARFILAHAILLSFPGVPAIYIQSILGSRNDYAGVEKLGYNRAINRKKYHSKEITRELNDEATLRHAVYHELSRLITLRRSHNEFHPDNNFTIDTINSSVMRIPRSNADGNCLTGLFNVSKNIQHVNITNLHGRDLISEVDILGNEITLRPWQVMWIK
UniProt P76372: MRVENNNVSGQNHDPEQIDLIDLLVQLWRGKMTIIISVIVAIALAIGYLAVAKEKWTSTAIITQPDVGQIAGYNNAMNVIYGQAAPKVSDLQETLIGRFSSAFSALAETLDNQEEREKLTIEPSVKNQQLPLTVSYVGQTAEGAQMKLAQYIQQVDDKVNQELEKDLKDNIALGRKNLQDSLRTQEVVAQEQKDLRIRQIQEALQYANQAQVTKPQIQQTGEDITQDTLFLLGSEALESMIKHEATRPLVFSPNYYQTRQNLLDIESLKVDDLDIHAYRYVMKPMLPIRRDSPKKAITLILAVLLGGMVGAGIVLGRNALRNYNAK
UniProt P76002: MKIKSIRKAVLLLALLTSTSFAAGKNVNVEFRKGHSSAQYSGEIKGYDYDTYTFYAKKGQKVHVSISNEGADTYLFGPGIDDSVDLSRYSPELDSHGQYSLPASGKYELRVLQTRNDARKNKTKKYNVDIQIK
UniProt P75952: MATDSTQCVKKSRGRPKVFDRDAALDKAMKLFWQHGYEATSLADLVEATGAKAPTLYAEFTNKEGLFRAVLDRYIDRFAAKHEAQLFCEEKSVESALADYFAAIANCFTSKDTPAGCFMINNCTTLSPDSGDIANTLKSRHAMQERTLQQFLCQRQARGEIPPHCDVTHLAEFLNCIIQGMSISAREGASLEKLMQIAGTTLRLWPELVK
UniProt P76540: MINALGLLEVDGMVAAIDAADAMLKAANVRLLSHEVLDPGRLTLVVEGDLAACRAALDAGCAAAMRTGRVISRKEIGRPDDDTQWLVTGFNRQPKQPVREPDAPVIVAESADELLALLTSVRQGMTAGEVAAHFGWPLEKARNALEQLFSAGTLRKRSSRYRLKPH
UniProt P77475: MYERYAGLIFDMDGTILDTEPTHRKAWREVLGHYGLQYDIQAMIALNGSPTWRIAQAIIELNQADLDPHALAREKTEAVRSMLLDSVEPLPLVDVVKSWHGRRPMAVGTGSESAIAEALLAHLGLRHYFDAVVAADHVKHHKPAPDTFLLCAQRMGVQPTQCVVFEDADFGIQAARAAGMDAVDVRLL
UniProt P76569: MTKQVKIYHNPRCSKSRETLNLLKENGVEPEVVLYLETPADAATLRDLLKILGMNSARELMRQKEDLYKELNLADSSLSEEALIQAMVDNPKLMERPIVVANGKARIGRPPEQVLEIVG
UniProt P77339: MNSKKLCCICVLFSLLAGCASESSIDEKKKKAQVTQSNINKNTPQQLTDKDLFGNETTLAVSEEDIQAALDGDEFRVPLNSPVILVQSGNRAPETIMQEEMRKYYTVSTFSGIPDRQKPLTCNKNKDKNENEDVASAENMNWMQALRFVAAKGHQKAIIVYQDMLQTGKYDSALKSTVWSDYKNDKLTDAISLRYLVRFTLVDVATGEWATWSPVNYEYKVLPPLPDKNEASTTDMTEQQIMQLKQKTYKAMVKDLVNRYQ
UniProt P75975: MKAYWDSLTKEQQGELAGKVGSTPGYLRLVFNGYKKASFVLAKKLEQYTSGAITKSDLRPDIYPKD
UniProt P77611: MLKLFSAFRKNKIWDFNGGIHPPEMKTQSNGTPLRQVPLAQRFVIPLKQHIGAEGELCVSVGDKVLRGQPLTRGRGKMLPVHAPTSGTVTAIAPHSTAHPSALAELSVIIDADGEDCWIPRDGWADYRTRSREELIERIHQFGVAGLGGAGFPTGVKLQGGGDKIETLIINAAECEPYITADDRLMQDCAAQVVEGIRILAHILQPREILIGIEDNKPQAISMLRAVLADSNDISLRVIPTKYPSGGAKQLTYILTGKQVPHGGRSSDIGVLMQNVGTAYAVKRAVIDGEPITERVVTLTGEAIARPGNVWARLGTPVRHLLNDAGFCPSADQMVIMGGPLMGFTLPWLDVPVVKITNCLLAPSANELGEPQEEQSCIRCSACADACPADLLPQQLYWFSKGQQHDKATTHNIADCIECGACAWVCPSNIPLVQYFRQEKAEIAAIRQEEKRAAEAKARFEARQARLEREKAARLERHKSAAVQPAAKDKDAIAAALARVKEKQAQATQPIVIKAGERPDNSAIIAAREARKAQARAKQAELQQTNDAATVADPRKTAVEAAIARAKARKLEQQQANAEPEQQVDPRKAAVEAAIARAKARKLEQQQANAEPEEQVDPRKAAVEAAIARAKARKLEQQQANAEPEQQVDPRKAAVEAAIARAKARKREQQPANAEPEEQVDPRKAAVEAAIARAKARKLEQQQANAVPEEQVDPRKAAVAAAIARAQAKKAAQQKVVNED
UniProt P77360: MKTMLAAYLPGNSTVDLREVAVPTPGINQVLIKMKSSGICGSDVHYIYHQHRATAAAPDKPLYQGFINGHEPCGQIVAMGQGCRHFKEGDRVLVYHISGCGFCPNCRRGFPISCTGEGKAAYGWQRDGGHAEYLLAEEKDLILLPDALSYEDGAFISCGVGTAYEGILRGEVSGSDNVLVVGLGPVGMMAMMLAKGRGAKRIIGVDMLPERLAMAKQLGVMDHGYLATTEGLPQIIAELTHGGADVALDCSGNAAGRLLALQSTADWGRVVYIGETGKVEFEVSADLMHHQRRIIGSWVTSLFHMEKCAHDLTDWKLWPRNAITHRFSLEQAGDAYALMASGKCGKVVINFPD
UniProt P77359: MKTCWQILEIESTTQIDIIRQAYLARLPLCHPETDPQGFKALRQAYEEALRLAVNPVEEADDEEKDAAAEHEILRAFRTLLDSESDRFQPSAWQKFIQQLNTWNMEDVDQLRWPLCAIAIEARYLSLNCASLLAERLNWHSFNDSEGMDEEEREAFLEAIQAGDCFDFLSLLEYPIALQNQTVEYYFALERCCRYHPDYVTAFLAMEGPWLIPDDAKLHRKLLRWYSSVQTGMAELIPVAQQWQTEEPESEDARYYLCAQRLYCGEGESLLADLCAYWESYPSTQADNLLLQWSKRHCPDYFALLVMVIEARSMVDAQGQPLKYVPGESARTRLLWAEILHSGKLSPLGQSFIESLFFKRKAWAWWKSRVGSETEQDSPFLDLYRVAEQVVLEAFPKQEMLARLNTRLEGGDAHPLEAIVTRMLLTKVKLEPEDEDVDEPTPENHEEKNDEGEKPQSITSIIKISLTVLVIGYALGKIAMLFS

These targets were tested with CC1(C)S[C@@H]2[C@H](NC(=O)[C@H](N)c3ccccc3)C(=O)N2[C@H]1C(=O)O [ampicillin] (assay: log2 fold change of tryptic peptide abundance, ligand vs vehicle (limited proteolysis) (log2 ratio); higher = more trypsin-susceptible (destabilized)). Details: ligand concentration: 10 uM; sample: E. coli crude lysate.

Target	log2 fold change
UniProt P77357 (peptide sequence: VNVGVMQAGSGR, peptide start residue: 276)	-0.177
UniProt P75957 (peptide sequence: ILLQCDNLCKR, peptide start residue: 4)	0.238
UniProt P77338 (peptide sequence: ASSNGDLPTK, peptide start residue: 35)	0.276
UniProt P75919 (peptide sequence: EQSSTLHDR, peptide start residue: 350)	0.226
UniProt P76086 (peptide sequence: LNKEGWLDVSR, peptide start residue: 64)	-0.238
UniProt P77615 (peptide sequence: AIEELQYQPNK, peptide start residue: 40)	-0.355
UniProt P76097 (peptide sequence: VGTAQELATLRR, peptide start residue: 73)	-0.613
UniProt P75989 (peptide sequence: WISNGVPVGK, peptide start residue: 56)	-0.122
UniProt P76112 (peptide sequence: IAWFEAR, peptide start residue: 40)	-0.165
UniProt P77256 (peptide sequence: AIGAANVDADHIR, peptide start residue: 165)	0.451
UniProt P76342 (peptide sequence: GNDRPPAPAGK, peptide start residue: 52)	0.0383
UniProt P76041 (peptide sequence: ELNDEATLR, peptide start residue: 458)	0.239
UniProt P77335 (peptide sequence: SSYFQSQVDK, peptide start residue: 163)	-0.147
UniProt P76372 (peptide sequence: DNIALGRK, peptide start residue: 169)	0.501
UniProt P76002 (peptide sequence: YSPELDSHGQYSLPASGK, peptide start residue: 89)	0.166
UniProt P77555 (peptide sequence: MGMEHAIK, peptide start residue: 92)	-0.268

Target	log2 fold change
UniProt P75952 (peptide sequence: DAALDKAMK, peptide start residue: 22)	1.06
UniProt P76540 (peptide sequence: NALEQLFSAGTLRK, peptide start residue: 143)	-0.593
UniProt P77510 (peptide sequence: IFEQGVSTR, peptide start residue: 488)	0.366
UniProt P77608 (peptide sequence: NNEEVSSGR, peptide start residue: 188)	0.158
UniProt P77329 (peptide sequence: GEAILAALK, peptide start residue: 10)	-0.62
UniProt P77260 (peptide sequence: TATGVIVEALAR, peptide start residue: 157)	0.183
UniProt P77475 (peptide sequence: YAGLIFDMDGTILDTEPTHRK, peptide start residue: 5)	0.535
UniProt P76569 (peptide sequence: ILGMNSAR, peptide start residue: 51)	0.15
UniProt P77339 (peptide sequence: AQVTQSNINK, peptide start residue: 32)	0.193
UniProt P75975 (peptide sequence: VGSTPGYLR, peptide start residue: 20)	0.181
UniProt P77611 (peptide sequence: KTAVEAAIAR, peptide start residue: 556)	0.227
UniProt P77360 (peptide sequence: LLALQSTADWGR, peptide start residue: 258)	-0.461
UniProt P76556 (peptide sequence: LPAGLLDIGVSKR, peptide start residue: 81)	-0.335
UniProt P76256 (peptide sequence: DENGIWHGEETEAVLKPEIVHER, peptide start residue: 130)	0.179
UniProt P77359 (peptide sequence: SMVDAQGQPLK, peptide start residue: 313)	0.351

8 entries from above, bar-delimited:
Target | log2 fold change
UniProt P77608 (peptide sequence: NNEEVSSGR, peptide start residue: 188) | 0.158
UniProt P77329 (peptide sequence: GEAILAALK, peptide start residue: 10) | -0.62
UniProt P77260 (peptide sequence: TATGVIVEALAR, peptide start residue: 157) | 0.183
UniProt P77475 (peptide sequence: YAGLIFDMDGTILDTEPTHRK, peptide start residue: 5) | 0.535
UniProt P76569 (peptide sequence: ILGMNSAR, peptide start residue: 51) | 0.15
UniProt P77611 (peptide sequence: KTAVEAAIAR, peptide start residue: 556) | 0.227
UniProt P77360 (peptide sequence: LLALQSTADWGR, peptide start residue: 258) | -0.461
UniProt P77359 (peptide sequence: SMVDAQGQPLK, peptide start residue: 313) | 0.351
